Tested on: GUMC-403
Experiment: viability at highest tested concentration (max response) relative to DMSO (% of DMSO control); higher = less cytotoxic
Details: library / dose series: MIPE library, 11-point 1:3 dilution; top concentration 46.1 µM; 48 h
In short: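 Conditionally reprogrammed GUMC-403 papilloma cells from a patient were plated at 700/well in 5 μL F + Y medium in 1536-well plates and left overnight at 37 °C. A pin tool then added 23 nL of library compounds as an 11-point 1:3 series, for 48 h. CellTiter-Glo luminescence was read on a ViewLux and scaled with vehicle wells set to 100% and empty wells to 0%. Each value gives viability at the highest tested concentration relative to vehicle control.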

## CC1=C(C=CC=C1)N2C(=O)C3=C(C=CC=C3C)\N=C2\C[N]4N=C(C5=CC(=CC=C5)O)C6=C(N)N=CN=C46
  viability: 109

## COC(=O)[C@H](CCCNC(=N)N)N[S+](=O)([O-])c1ccc(C)cc1
  viability: 117

Reference: the supplement of paper PMC6723410
